Source: PubChem BioAssay AID1347075 (National Center for Advancing Translational Sciences (NCATS), 2019)
The whole screen tested about 400,000 compounds, of which about 5,500 (1.4%) were called active. This list was built around the results that the source calls inconclusive (neither active nor inactive); the mix of calls is not that of the screen. Calls come from the whole dose curve; as a rule, active = well fitted cell-killing curve with a large enough effect; inconclusive = small, poorly fitted or top-dose-only effect, or effect the other way; inactive = flat fitted curve, though single readings scatter. Potencies beside an inconclusive call are fits to weak or partial responses and may not hold up.

experiment: qHTS assay for MDR1-selective chemotherapeutics: Primary screen using the parental adenocarcinoma cell KB-3-1; conditions: KB-3-1 viability, CellTiter-Glo ATP luminescence, 72 h; activity change, negative = cytotoxic: at 46.1 µM (top of the series); note: nearly all actives have a fitted effect of over 60% in size
Summary of the method: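 Multi-concentration cytotoxicity screen in KB-3-1 cells grown in DMEM lacking phenol red with 10% FBS. After 72 h at 37 °C with compound, ATP-dependent luminescence was recorded.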
% is set by controls: 0 for no effect and ±100 for the full control effect; potency is the fitted concentration of half-maximal effect.

SMILES | Potency | activity change, negative = cytotoxic
COc1ccc(/C=C/C(=O)c2ccc(OC)cc2OC)cc1 | inconclusive: 29.1 µM [cytotoxic, single point] | –
OCC1(Cc2ccccc2)CCN(Cc2cnc(-c3ccc(Cl)cc3)nc2)CC1 | inconclusive: 29.1 µM [cytotoxic, single point] | –
CCc1ccc(NC(=O)CN2CCSc3ccc(S(=O)(=O)N4CCCC4)cc32)cc1 | active: 16.4 µM | –
Cc1cc(C)n(-c2ccc(C(=O)N3CCN(S(=O)(=O)c4ccc(C(C)C)cc4)CC3)cc2)n1 | inactive | –
Cc1ccc(OCCCOc2cccc3cccnc23)cc1C | inactive | –
CCCc1cc(=O)[nH]c(Nc2ccc(Cl)cc2)n1 | inconclusive: 20.6 µM [cytotoxic, partial curve] | –
COc1ccc(N/N=C/c2c(C(=O)O)ccc3ccccc23)cc1 | inconclusive: 5.17 µM [cytotoxic, full curve] | –
Cc1ccc(CNC(=O)Cn2c(=O)ccc3cc(S(=O)(=O)N4CCCC4)ccc32)cc1 | inconclusive: 1.03 µM [rising, full curve, poor fit] | –
CCCCN(C(=O)c1oc2ccc(OCC)cc2c1C)c1c(N)n(CC(C)C)c(=O)[nH]c1=O | inconclusive: 2.59 µM [rising, full curve, poor fit] | –
c1nc(SSc2ncc3n[nH]nc3n2)nc2n[nH]nc12 | inconclusive: 25.9 µM [rising, partial curve, poor fit] | –
Cc1ccccc1CN1C(=O)CS/C1=N/N=C/c1ccco1 | inconclusive: 18.4 µM [rising, single point] | –
CCc1nc(OCc2ccco2)c2sc3nc4c(cc3c2n1)COC(C)(C)C4 | inconclusive: 16.4 µM [cytotoxic, single point] | –
COc1ccc(C(=O)N2CCCC2(C#N)c2ccccc2)cc1[N+](=O)[O-] (stereo not given) | inactive | –
CCc1c(-c2ccc(Br)cc2)ncn1Cc1cccc(-c2ccccc2)c1 | inconclusive: 14.6 µM [cytotoxic, partial curve, poor fit] | –
CCc1nc2ccc(C(=O)N3CCN(c4ccccc4)CC3)cn2c1N(CCC(C)C)CCN(C)C | inactive | –
CCC(C)Oc1ccccc1C1CC(=O)NC2=C1C(=O)CCC2 (stereo not given) | inconclusive: 5.17 µM [cytotoxic, full curve, poor fit] | –
Cc1ccc(COC(=O)c2nn(C)c(=O)c3ccccc23)cc1 | inconclusive: 29.1 µM [cytotoxic, single point] | –
COc1ccc(/C=N/Nc2nc(=O)[nH]nc2C)cc1[N+](=O)[O-] | inactive | –
CC(=O)CSc1nc2ccc(Nc3nc(N4CCOCC4)nc(N4CCOCC4)n3)cc2s1 | inconclusive: 29.1 µM [cytotoxic, single point] | –
Cc1cc(C)c(S(=O)(=O)/N=C2\C=C(NS(=O)(=O)c3ccccc3)C(=O)c3ccccc32)c(C)c1 | inactive | –
c1ccc(CNc2ncnc3c2cnn3-c2ccccc2)cc1 | active: 5.17 µM | –
Cc1ccc(C2c3[nH]c4ccccc4c3C[C@H]3C(=O)N(c4ccccc4C(=O)NCCCN4CCOCC4)C(=O)N23)cc1 (stereo not given in full) | inactive | –
CCOC(=O)N1CCN(Cc2nc3cc(NC(=O)c4cccs4)ccc3n2CC)CC1 | inconclusive: 29.1 µM [cytotoxic, single point] | –
COCCCN1C(=O)C(CC(=O)NCC2CCCCC2)CC(C(=O)N2CCOCC2)=C1C (stereo not given) | inconclusive: 29.1 µM [rising, single point] | –

SMILES | Potency | activity change, negative = cytotoxic
O=[N+]([O-])c1ccccc1CSc1ccccn1 | inconclusive: 0.92 µM [rising, full curve, poor fit] | –
CC(NC(=O)c1cccc(S(=O)(=O)N2CCN(Cc3ccccc3)CC2)c1)c1ccc(Br)cc1 (stereo not given) | inconclusive: 29.1 µM [cytotoxic, single point] | –
CC(=O)c1ccc(S(=O)(=O)N2CCN(C(=O)c3ccc(-n4nc(C)c(Cl)c4C)cc3)CC2)cc1 | inconclusive: 25.9 µM [cytotoxic, single point] | –
CCc1ccc2[nH]c(=O)c(CN(CCCN3CCOCC3)C(=O)Nc3cccc(Cl)c3)cc2c1 | inconclusive: 23.1 µM [cytotoxic, single point] | –
COc1ccccc1Nc1nc(N2CCOCC2)nc(N2CCOCC2)n1 | inconclusive: 20.6 µM [cytotoxic, single point] | –
COC(=O)c1sccc1NC(=O)/C=C/c1ccc(Cl)cc1Cl | inconclusive: 23.1 µM [cytotoxic, partial curve] | –
Cn1c(=O)c2c(nc(NCc3ccco3)n2C/C=C/c2ccccc2)n(C)c1=O | inactive | –
CC(=O)c1cccc(NC(=O)C2=CC(c3ccc4c(c3)OCO4)=NS(=O)(=O)N2C)c1 | inactive | –
CCCC[C@H](CN[C@@H](CNC)[C@H](C)CC)NCCC12CCC(CC1)C2 | inconclusive: 20.6 µM [cytotoxic, single point] | –
COc1ccc(CCNc2nc(-c3ccncc3)cs2)cc1OC | inactive | –
CC(NC(=O)c1ccnc(C(C)(C)C)c1)c1ccccc1 (stereo not given) | inconclusive: 29.1 µM [cytotoxic, single point] | –
COc1ccccc1CNC(=O)CCC1N=C2c3ccccc3N=C(SCC(N)=O)N2C1=O (stereo not given) | inactive | –
CN1C(=O)C(C)(C)c2cc(S(=O)(=O)N(C)Cc3ccccc3)ccc21 | inactive | –
CCOC(=O)c1[nH]c(C)c(C(=O)NC2CCCC2)c1C | inactive | –
COc1cc(SSc2cc(OC)cc([N+](=O)[O-])c2N)c(N)c([N+](=O)[O-])c1 | inconclusive: 11.6 µM [cytotoxic, partial curve] | –
CCOc1ccc(-c2c(C(=O)N/N=C/c3ccc(C)cc3)nnn2-c2nonc2N)cc1 | inactive | –
COc1ccc(C)cc1S(=O)(=O)n1cnc2ccccc21 | active: 5.17 µM | –
CCN1C(=O)c2ccccc2Sc2ccc(NC(=O)Nc3ccccc3OC)cc21 | inconclusive: 14.6 µM [cytotoxic, single point] | –
Cc1cc(C(=O)NNc2ccc(F)cc2)no1 | inconclusive: 16.4 µM [cytotoxic, single point] | –
Cc1ccc(Nc2c(F)c(F)c(F)c(F)c2C(=O)O)c(C)c1 | inconclusive: 20.6 µM [cytotoxic, single point] | –
COc1ccc(-n2ncc3c(N4CCC(C)CC4)ncnc32)cc1 | inconclusive: 18.4 µM [cytotoxic, single point] | –
COc1ccc2c(Cl)c(-c3nnco3)sc2c1 | inconclusive: 20.6 µM [cytotoxic, partial curve] | –
O=S(=O)(c1cccc(Cl)c1)N1CCSc2ccccc21 | inactive | –
CC(C)(C)NC(=O)C(c1ccncc1)N(C(=O)c1csnn1)c1ccccc1 (stereo not given) | inactive | –

Looked up by compound from above (2):
SMILES | Potency | activity change, negative = cytotoxic
Cc1ccc(Nc2c(F)c(F)c(F)c(F)c2C(=O)O)c(C)c1 | inconclusive: 20.6 µM [cytotoxic, single point] | –
Cn1c(=O)c2c(nc(NCc3ccco3)n2C/C=C/c2ccccc2)n(C)c1=O | inactive | –

More results:

SMILES | Potency | activity change, negative = cytotoxic
O=C(c1ccccc1)c1ccc(OCCn2cnc3ccccc3c2=O)cc1 | inconclusive: 18.4 µM [cytotoxic, single point] | –
C[C@H](CO)N1C[C@H](C)[C@H](CN(C)C(=O)Nc2ccc3c(c2)OCO3)Oc2ncc(Br)cc2C1=O | – | inconclusive: 40.3%
CCOC(=O)c1c(-c2cccs2)csc1N | inactive | –
CCN1CCN(CCOc2ccc(Cl)cc2)CC1 | inactive | –
CCSc1ncc(Cl)c(C(=O)Nc2ccc(S(=O)(=O)N3CCC(C)CC3)cc2)n1 | inconclusive: 11.6 µM [cytotoxic, partial curve] | –
C/C(=C\C(=O)c1ccncc1)Nc1ccccc1O | inconclusive: 23.1 µM [cytotoxic, single point] | –
CCc1ccc(Nc2nnc(SCC(=O)NC(=O)c3cccn3C)s2)cc1 | inconclusive: 29.1 µM [cytotoxic, single point] | –
COc1c(F)c(F)c(C(=O)O)c(Nc2ccc(C)cc2C)c1F | inconclusive: 29.1 µM [rising, single point] | –
CCN(C(=O)c1cc(Cl)ccc1Cl)C1CCS(=O)(=O)C1 (stereo not given) | inactive | –
CCc1cc(-c2n[nH]c(=S)n2CC)cs1 | inconclusive: 29.1 µM [cytotoxic, single point] | –
Cc1nc(N2CCN(c3ccccn3)CC2)c2c(C)c(C(=O)Nc3ccccc3F)sc2n1 | active: 20.6 µM | –
N#C/C(=C(/O)COC(=O)CCCNC(=O)c1ccc(Cl)cc1)c1nc2ccccc2[nH]1 | inconclusive: 18.4 µM [cytotoxic, single point] | –
O=C(Nc1ccc(F)cc1F)N1CCCN(c2ccc(C(F)(F)F)cn2)CC1 | inconclusive: 23.1 µM [cytotoxic, single point] | –
CN(C)c1cc(NC(=O)CN2CCCC2)c2ccccc2n1 | inconclusive: 29.1 µM [cytotoxic, single point] | –
COc1ccc(NS(=O)(=O)c2cccc(NC(=O)c3ccc(S(=O)(=O)N4CCCCCC4)cc3)c2)cc1 | active: 20.6 µM | –
Cc1ccc(Nc2c(-c3ccsc3)nc3cccc(C)n23)cc1 | inconclusive: 29.1 µM [cytotoxic, single point] | –
CCOc1ccc(S(=O)(=O)NCc2ccc3c(c2)OCO3)cc1C(=O)O | inactive | –
COc1cc(NC(=O)c2cc(C)nc3ccccc23)cc(OC)c1 | inactive | –
COCCNC(=S)NC(=O)c1ccc(C(C)(C)C)cc1 | inactive | –
CCCCC(C)Sc1nc2c([nH]1)c(=S)n(C)c(=O)n2C (stereo not given) | inconclusive: 29.1 µM [cytotoxic, single point] | –
COC(=O)[C@]1(CC(C)C)N[C@H](c2ccc(-c3ccc(Cl)c(Cl)c3)cc2)[C@@H]2C(=O)N(C)C(=O)[C@@H]21 | inconclusive: 29.1 µM [cytotoxic, single point] | –
O=c1cc(C(F)(F)F)nc(-n2[nH]c3c(c2=O)CCCC3)[nH]1 | inconclusive: 2.59 µM [cytotoxic, full curve, poor fit] | –
